# Laboratory results: PMC6105217
# No constants are given. Whether binding was seen depends on the method and setting. In cells and extracts the contact can be indirect. A yes stands for co-enrichment or nearness to the bait. Other partners may have been found. Sequences can lack the tags named with a protein.
# T1: N-His-aIF5A produced in Sso PH1-16 (pMJ05-N-His-aIF5A) (Sulfolobus solfataricus) (UniProt Q97ZE8)
# T1 sequence (chain, modified, recognised by anti-hypusine antibodies (hypusine or deoxyhypusine)): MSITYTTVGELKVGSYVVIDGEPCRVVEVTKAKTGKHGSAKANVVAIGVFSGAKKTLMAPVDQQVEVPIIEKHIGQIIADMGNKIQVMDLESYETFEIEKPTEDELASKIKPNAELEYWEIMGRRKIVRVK
# B1: Pseudouridine methyltransferase Nep1 (protein, UniProt Q97WJ0 1-218)
# chain: MHLNIILLEASLELVPKEIVNHPAVIKNAKRRNKKPEDTLLDISLHYHAMKYLENSHKRGRPDILHQALLVILTDPVIKGDIFIHTIQSKIIKVNPNMRPPKNYLRFIGLMEQLLKYGKIPINGDETLMEVTNLTLDNIVNRYDLILLSEKGEKINPEEICKLDEKWLLGIGAFPHGDFSDKILNLAKKIYSISGFPLETQQVLCRIFSACNSILGWP
# B2: MoxR-like ATPase (protein, UniProt Q97W74 1-382)
# chain: MSEKTLLELPKKFMEALMAPFIGREEEAKVITLALLSKEHVILIGEPGTAKSALARRAAELLNAKFFMYLLTKYTEPAELFGALDINALKDGQYKRITKDRLPESQIAFLDEIFNANSAILNALLSLLNERVIYDGYNVIKVPLRTLISASNRVPDEPELEALYDRLLLRHYARPVGEELWKQLLDATWEIEFTNRWAVKEPIMNIEHLDKLYSYLSQVDLSGVKNKLLKLYAMLEEKGIHLSDRRKGKVLKVVSAHAILNSRLKATEEDLIVLKYIAPREIDDFEKVAALLSEELKTPIKYMKELNEIYNNIKEAAKYVEAANESDPRLIELIRSLRATRDRIVALGKESGDEKVEEFSKEVLSEIDKLIEKVARKLGIYP
# B3: Transcriptional regulator, AsnC family (protein, UniProt Q7LXS6 1-157)
# chain: MSDSKKRTVDLDAIDRRLLIELTRDARTSLRRLAEEMNVSPATLHNRMTRMVQEGMIKSFVALLDYSKLGFALTGIIMAKVDGKHLVEFEKEIANADNVTAVYDVVGEYDVVIIAKFRSVEELDSFLKQLLKNPKIERTYTSIVLNVVKEDPRIRIF
# B4: Nop56 (C/D box methylation guide RNP) (protein, UniProt Q97ZH3 1-412)
# chain: MMKIYLIEHVIGAVAYDENGNIVDYITNPRDLGKITEELLNNEKGIPFSATVELLKKVNPQEVVVENEAEVPKLQALGYRVSYEPYSKVSRIFRESLPKVAIDIKFASNEEDYYNFLHELSLEYTRRKLRSAAQKRDLLAIQAVRAMDDIDKTINLFSERLREWYSIHFPELDKLIEDHEEYATIVSRFGDRGFLTIDSLKELGFNEQRINRILDAAKKSIGADISEDDLSAMRMIANTILDLYNIRRNLNNYLEGVMKEVAPNVTALVGPALGARLLSIAGSLDELAKMPASTIQVLGAEKALFRALRSGGRPPKHGIIFQYPAIHTSPRWQRGKIARALAAKLAIAARVDAFSGRFIGDQLNEQLKKRIDEIKEKFAQPPPKKPQQQKPQQPQKQQAKGKKGGKRRGKRK
# B5: RPL30e (50S ribosomal protein) (protein, UniProt Q980R3 1-108)
# chain: MIKVSEQQVSFEGELKSLLKTGKVIFGAKRAIKYIKLSKVKMVIVASTLRGDLKQDIMHYAKLSNIPVYEYKGSGWDLGTLCGKPFMISTISIIDEGDSKILDIIKER
# B6: Hypothetical protein SS01412 (protein, UniProt Q97YB7 1-200)
# chain: MLILCVNHKVQIPVKVKYNIMAYITDDFEFWAWVSSEPKVMRMFNELEKAFKRFEGSLMSLGYNYIYLDVFPFDQRRITVVFGEYEPLPVDELEGKEEERVMKERENYFSITFDNITPSPIEQPTLLSYEVYAMWWLHHEVPEESDFVNLEGIVEKGLFHCVNGDKREGKSQTKYLLDLGECYNNLIKVVNKRDFKFPLM
# B7: Hypothetical protein SS01413 (protein, UniProt Q97YB6 1-139)
# chain: MMSTSGFYQRSRRAIIYETDSLFRYTTEAELKFVIEKGVIMSYNPKGTYLTNLFTDDPNVAVKMLALSKLPRYRIGPISMSKKLFSKVKYVGIVTPKGKSRGGAKEYVFTDPIIIDVENLYVYDFKDRRTYTIRLPSIH
# B8: Hypothetical protein SS01383 (protein, UniProt Q97YE3 1-177)
# chain: MESQLPKFLKEPEKYSRLRLLEALQELYLSIEMLKEGYSRNSASKLFLSWKALLSSIVVTNFGKIMETKKKEGKEDEIKWYMRIGYSAPTTGLIGIARDLENLGFKGLVNLTTAMLGIHRYAYNGLDEDISPFHSRSEAIISIKGLIKAEVEIVGSMKFGDEEKELFEKIKRELNNI
# B9: Hypothetical protein SSO0845 (protein, UniProt Q97ZN9 1-224)
# chain: MHSIRMGLLGDMRLYLDIETYRPKSAFVNEKVIAIGLIADQTDYKPESSNIWDLPKVEFKYFKEWKRDERSEEWEHDEYSVVTQFYKYLKELIEKWRRKEMYIEVVGFNILRFDIPLLIQKGVEHRVGSLEELNSLWHNTFTRDYLQMALPLNNMRFKGLQLEYLAEMLREKGVNVPKPYGKGEEVKSLYENKKYDEIIKHLEADLRITRIIDLNWPRLFKPTP
# Biological target: T1, N-His-aIF5A produced in Sso PH1-16 (pMJ05-N-His-aIF5A) (Sulfolobus solfataricus)
# Test: affinity purification with mass spectrometry; N-His-aIF5A and co-purifying proteins from lysate of Sso PH1-16 (pMJ05-N-His-aIF5A) on Ni-NTA agarose; wash with 300 mM NaCl; whole eluate digested with trypsin, LC-MS/MS, label free quantification against a mock purification; enriched more than …
row,Binder,binding
1,B1,binds
2,B2,binds
3,B3,binds
4,B4,binds
5,B5,binds
6,B6,binds
7,B7,binds
8,B8,binds
9,B9,binds
